According to PubChem BioAssay (NCATS):
Inconclusive results, whose numbers are uncertain, are shown with a selection of clear calls. A potency beside an inconclusive call is a rough fit, not a confirmed value. The source made the active and inactive calls. The call rests on the fitted dose curve; in most records, active means well fitted cell-killing curve with a large enough effect; inconclusive means small, poorly fitted or top-dose-only effect, or effect the other way; inactive means no such curve, though single readings can be large or run the other way.

assay: Quantitative High-Throughput drug screen in 47 multiple myeloma cell lines against the NCATS MIPE library collection: JIM1_ECACC cell viability assay (AID 1918964); conditions: JIM1 myeloma viability, CellTiter-Glo ATP luminescence, 48 h; viability (% of DMSO): at 45.8 µM (top of the series)
From the text: PI: Beverly A. Mock Ph.D.
Laboratory of Cancer Biology and Genetics,
Center for Cancer Research, National Cancer Institute,
National Institute of Health, Bethesda, Maryland
Drug resistance and disease progression are common in multiple myeloma (MM) patients, underscoring the need for new therapeutic combinations. […] We hypothesized that effective combinations would reduce MYC expression and enhance p16 activity. […] These preclinical data identify potentially useful drug combinations for evaluation in drug-resistant MM and reveal potential mechanisms of combined drug sensitivity.
Described herein is the primary MIPE qHTS used to cherrypick compounds. Validated compounds were then further tested for potential synergistic activiy.
[1] Peat TJ, Gaikwad SM, Dubois W, Gyabaah-Kessie N, Zhang S, Gorjifard S, Phyo Z, Andres M, Hughitt VK, Simpson RM, Miller MA, Girvin AT, Taylor A, Williams D, D'Antonio N, Zhang Y, Rajagopalan A, Flietner E, Wilson K, Zhang X, Shinn P, Klumpp-Thomas C, McKnight C, Itkin Z, Chen L, Kazandijian D, Zhang J, Michalowski AM, Simmons JK, Keats J, Thomas CJ, Mock BA. Drug combinations identified by high-throughput screening promote cell cycle transition and upregulate Smad pathways in myeloma. Cancer Lett. 2023 Aug 1;568:216284. doi: 10.1016/j.canlet.2023.216284. Epub 2023 Jun 24. PMID: 37356470; PMCID: PMC10408729.
SEQUENCE No. (e.g., 1, 2, 3, etc.); […] (e.g., Cells, Incubation, Reagent, etc.); VALUE and DESCRIPTION.
1; Cells; 5 uL; white, solid bottom 1536-well Greiner assay plate.
2; Compounds; 23 nL; Kalypsis pin tool (Wako USA) equipped with a 1536-well pin head to transfer to the assay plates.
3; Incubation; 48 hours; 37C incubation.
4; Reagent;5uL; CellTiter Glo (Promega).
5; Detector; 425V; Luminescence; Viewlux PerkinElmer.
NOTES (numbers refer to Sequence numbers above)
1. The cell-based screening methods employed in this study were like those previously published. Briefly, the corresponding myeloma cell lines were screened in 1,536-well plates with 500 cells, 5-uL per well for inhibition of cell viability (assessed by measuring ATP levels with CellTiterGlo).
2. NCATS MIPE 4.0 library of approved and investigational drugs were added using the Kalypsis pin tool. Wells treated with DMSO only for 100% viability and media only wells for 0% viability were used as controls.
3. The assay plates were covered and incubated for 48 hours in a 37C, 5% CO2 incubator with controlled humidity.
4. After 48 hours, CellTilter-GloTM luminescent substrate mix (Promega) reagent was added to the assay plate and plates we incubated for 5 min at room temperature.
5. Signal was measured as median relative luminescence units on a ViewLux (PerkinElmer) multiplate reader.
[1] Heske CM, Davis MI, Baumgart JT, Wilson K, Gormally MV, Chen L, Zhang X, Ceribelli M, Duveau DY, Guha R, Ferrer M, Arnaldez FI, Ji J, Tran HL, Zhang Y, Mendoza A, Helman LJ, Thomas CJ. Matrix Screen Identifies Synergistic Combination of PARP Inhibitors and Nicotinamide Phosphoribosyltransferase (NAMPT) Inhibitors in Ewing Sarcoma. Clin Cancer Res. 2017 Dec 1;23(23):7301-7311. doi: 10.1158/1078-0432.CCR-17-1121. Epub 2017 Sep 12. PMID: 28899971; PMCID: PMC6636827.
Potency means the concentration at half of the fitted maximal effect.

| Structure (SMILES) | viability (% of DMSO) | Potency |
| --- | --- | --- |
| CCCCCCCCCC(=O)N[C@@H](Cc1c[nH]c2ccccc12)C(=O)N[C@H](CC(N)=O)C(=O)N[C@@H](CC(=O)O)C(=O)N[C@@H]1C(=O)NCC(=O)N[C@@H](CCCN)C(=O)N[C@@H](CC(=O)O)C(=O)N[C@H](C)C(=O)N[C@@H](CC(=O)O)C(=O)NCC(=O)N[C@H](CO)C(=O)N[C@@H]([C@@H](C)CC(=O)O)C(=O)N[C@@H](CC(=O)c2ccccc2N)C(=O)O[C@@H]1C | inactive: 112% |  |
| Cc1cc(C(=O)NOCCO)c(Nc2ccc(I)cc2F)n(C)c1=O | inactive: 68.5% |  |
| CNC(=O)c1ccc2cc(C3(O)CCn4cncc43)ccc2c1 (stereo not given) | inactive: 110% |  |
| COCCNCCCn1c(C(=O)CF)c(-c2ccc(C)cc2)c2c(N)ncnc21 | inactive: 142% |  |
| COc1ccc(-c2nc3ccc(C4=NNC(=O)CC4C)cc3[nH]2)cc1 (stereo not given) | inactive: 104% |  |
| O=C1Nc2ccc(Cl)cc2C(C#CC2CC2)(C(F)(F)F)O1 (stereo not given) |  | inconclusive: 26400 nM [cytotoxic, single point] |
| CCC(=O)NC[C@H](Cc1ccc(OCCc2nc(-c3ccccc3)oc2C)cc1)NC(C)=CC(=O)c1ccc(C(F)(F)F)cc1 |  | inconclusive: 16600 nM [cytotoxic, partial curve, poor fit] |
| CC(C)n1cnc2c(NCCCCCCNC(=O)OC(C)(C)C)nc(NCCO)nc21 | inactive: 116% |  |
| O=C1CCCC(=O)C1C(=O)c1ccc(C(F)(F)F)cc1[N+](=O)[O-] |  | inconclusive: 662 nM [cytotoxic, full curve, poor fit] |
| CN1N=C(N)c2cn([C@@H]3O[C@H](COP(=O)(O)O)[C@@H](O)[C@@H]3O)c3ncnc1c23 |  | inconclusive: 16600 nM [cytotoxic, partial curve, poor fit] |
| CC(C)(Cc1ccc2ccccc2c1)NC[C@@H](O)COc1cccc(Cl)c1C#N |  | inconclusive: 935 nM [cytotoxic, full curve, poor fit] |
| Cn1cnc2c(F)c(Nc3ccc(Br)cc3Cl)c(C(=O)NOCCO)cc21 |  | inconclusive: 105 nM [cytotoxic, full curve, poor fit] |
| CNC[C@H](O)c1cccc(O)c1 |  | inconclusive: 4.7 nM [rising, full curve, poor fit] |
| CS(=O)(=O)OCCCCOS(C)(=O)=O |  | inconclusive: 4.7 nM [cytotoxic, full curve, poor fit] |
| Nc1ccn([C@@H]2O[C@H](CO)[C@@H](O)[C@H]2O)c(=O)n1 |  | inconclusive: 1 nM |
| CN(C)N=Nc1nc[nH]c1C(N)=O |  | inconclusive: 5.9 nM [cytotoxic, full curve, poor fit] |
| O=C1c2c(O)cc(O)cc2OC(c2ccc(O)c(O)c2)C1O (stereo not given) | inactive: 123% |  |
| N#C[C@H]1C[C@H]2C[C@@H]2N1C(=O)[C@@H](N)C12CC3CC(CC(O)(C3)C1)C2 | inactive: 123% |  |
| Cc1ccc(C(C)(O)c2nc3ccccc3s2)c(C)c1 (stereo not given) |  | inconclusive: 1.5 nM [rising, full curve, poor fit] |
| CC(C)C[C@@H](N)[C@H](O)C(=O)N[C@H](C(=O)N[C@H](C(=O)N[C@@H](CC(=O)O)C(=O)O)C(C)C)C(C)C | inactive: 101% |  |

7 entries already listed, ordered by formula weight, low to high:

| Structure (SMILES) | viability (% of DMSO) | Potency |
| --- | --- | --- |
| CN(C)N=Nc1nc[nH]c1C(N)=O |  | inconclusive: 5.9 nM [cytotoxic, full curve, poor fit] |
| N#C[C@H]1C[C@H]2C[C@@H]2N1C(=O)[C@@H](N)C12CC3CC(CC(O)(C3)C1)C2 | inactive: 123% |  |
| O=C1Nc2ccc(Cl)cc2C(C#CC2CC2)(C(F)(F)F)O1 (stereo not given) |  | inconclusive: 26400 nM [cytotoxic, single point] |
| COCCNCCCn1c(C(=O)CF)c(-c2ccc(C)cc2)c2c(N)ncnc21 | inactive: 142% |  |
| CC(C)n1cnc2c(NCCCCCCNC(=O)OC(C)(C)C)nc(NCCO)nc21 | inactive: 116% |  |
| Cn1cnc2c(F)c(Nc3ccc(Br)cc3Cl)c(C(=O)NOCCO)cc21 |  | inconclusive: 105 nM [cytotoxic, full curve, poor fit] |
| CCCCCCCCCC(=O)N[C@@H](Cc1c[nH]c2ccccc12)C(=O)N[C@H](CC(N)=O)C(=O)N[C@@H](CC(=O)O)C(=O)N[C@@H]1C(=O)NCC(=O)N[C@@H](CCCN)C(=O)N[C@@H](CC(=O)O)C(=O)N[C@H](C)C(=O)N[C@@H](CC(=O)O)C(=O)NCC(=O)N[C@H](CO)C(=O)N[C@@H]([C@@H](C)CC(=O)O)C(=O)N[C@@H](CC(=O)c2ccccc2N)C(=O)O[C@@H]1C | inactive: 112% |  |

(listing goes on)

| Structure (SMILES) | viability (% of DMSO) | Potency |
| --- | --- | --- |
| CC(C)(C)NC(=O)Nc1cccc(Nc2ncc(F)c(NC(C)(C)CO)n2)c1 |  | inconclusive: 3720 nM [rising, partial curve, poor fit] |
| Cn1c(=O)c2[nH]cnc2n(C)c1=O |  | inconclusive: 13.2 nM [cytotoxic, full curve, poor fit] |
| Cc1nc(C(=O)NCC(=O)O)c(O)c2ccc(Oc3ccccc3)cc12 |  | inconclusive: 23500 nM [cytotoxic, partial curve, poor fit] |
| CNS(=O)(=O)Cc1ccc2[nH]cc(CCN(C)C)c2c1 | inactive: 115% |  |
| O=C(CCc1ccc(O)cc1)c1c(O)cc(O)cc1O |  | inconclusive: 372 nM [cytotoxic, full curve] |
| NC(=O)c1ccc(N(C(N)=O)c2c(F)cccc2F)nc1-c1ccc(F)cc1F | inactive: 94% |  |
| CCOC(=O)C1=C(O)C(=O)N(Cc2ccccc2)C1 |  | inconclusive: 1660 nM [cytotoxic, partial curve, poor fit] |
| NC(=O)c1nnn(Cc2cc(Cl)c(C(=O)c3ccc(Cl)cc3)c(Cl)c2)c1N |  | inconclusive: 6620 nM [cytotoxic, partial curve, poor fit] |
| CN(C)C1CCN(C(=O)c2ccc(NC(=O)Nc3nc(N4CCOCC4)nc(N4CCOCC4)n3)cc2)CC1 |  | inconclusive: 118 nM [cytotoxic, full curve] |
| CCOC(=O)C1=C(N)Oc2ccc(Br)cc2C1C(C#N)C(=O)OCC (stereo not given) |  | inconclusive: 1.7 nM [cytotoxic, full curve, poor fit] |
| CCC[C@H](N[C@@H](C)C(=O)N1[C@@H]2CCCC[C@H]2C[C@H]1C(=O)O)C(=O)OCC |  | inconclusive: 1320 nM [cytotoxic, full curve, poor fit] |
| Clc1ccc(CCC(Cn2ccnc2)Sc2c(Cl)cccc2Cl)cc1 (stereo not given) |  | inconclusive: 14800 nM [cytotoxic, partial curve, poor fit] |
| Cc1cccc(C)c1OCC(=O)N[C@@H](Cc1ccccc1)[C@@H](O)C[C@H](Cc1ccccc1)NC(=O)[C@H](C(C)C)N1CCCNC1=O |  | inconclusive: 3720 nM [cytotoxic, partial curve, poor fit] |
| CC[C@H](CO)Nc1nc(NCc2ccccc2)c2ncn(C(C)C)c2n1 |  | active: 6620 nM |
| COc1ncnc(NS(=O)(=O)c2ccc(N)cc2)c1OC |  | inconclusive: 37.2 nM [rising, full curve, poor fit] |
| O=c1[nH]cnc2c1ncn2[C@H]1CC[C@@H](CO)O1 | inactive: 90.7% |  |
| N#Cc1cc(NC(=O)Nc2nnc(-c3ccncc3)s2)ccc1-c1cn[nH]c1 | inactive: 120% |  |
| CC(C)(C)c1cc(C(=O)O)c(NC(=O)Nc2ccc3[nH]ncc3c2)s1 | inactive: 83.7% |  |
| CC1(C)CCC[C@@]2(C)[C@@H]1CC[C@@]1(C)OC(=O)C[C@H]21 | inactive: 81.8% |  |
| CN(CCOc1ccc(NS(C)(=O)=O)cc1)CCc1ccc(NS(C)(=O)=O)cc1 | inactive: 86.4% |  |
